Measurements published in article PMC12442378, “SmsB-SmsC machinery in Thermococcus kodakarensis functions as an archaeal scaffold mediating Fe-S cluster assembly” (Applied and Environmental Microbiology, 2025).
No constants are given. Whether binding was seen depends on the method and setting. For part of these data: Binding seen in cells or lysates may run through a third protein. Some entries that bind do so weakly or less than the wild type. For part of these data: Sequences can lack the tags named with a protein.

Legend:
[1] = biological target: T1, Tk-SmsB (TK0730 protein) with a 6x His tag at its N-terminus (Thermococcus kodakarensis) (UniProt Q5JG67); assay: pull-down; purified His-tagged Tk-SmsB (100 ug, with or without equimolar Tk-SmsC) as bait, KU216 cell lysate (10 mg protein) as prey; 60 C for 30 min; His GraviTrap, washes with 20 and 50 mM imidazole, elution with 500 mM imidazole; SDS-PAGE; only the target purified
T1 sequence: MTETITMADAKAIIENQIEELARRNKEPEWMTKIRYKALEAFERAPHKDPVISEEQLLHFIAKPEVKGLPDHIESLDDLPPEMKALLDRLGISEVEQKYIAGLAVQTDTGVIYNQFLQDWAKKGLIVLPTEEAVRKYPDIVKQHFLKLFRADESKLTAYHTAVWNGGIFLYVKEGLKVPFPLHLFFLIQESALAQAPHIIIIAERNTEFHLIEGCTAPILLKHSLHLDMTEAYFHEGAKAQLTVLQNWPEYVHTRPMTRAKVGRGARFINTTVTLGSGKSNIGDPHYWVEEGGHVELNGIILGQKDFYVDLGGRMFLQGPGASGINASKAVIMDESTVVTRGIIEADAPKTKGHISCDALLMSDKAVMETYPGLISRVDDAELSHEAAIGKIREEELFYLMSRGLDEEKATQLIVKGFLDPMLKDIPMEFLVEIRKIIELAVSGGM

[2] = biological target: T2, Tk-SmsC (TK0731 protein), recombinant (Thermococcus kodakarensis) (UniProt Q5JG66); assay: SEC; Superdex 200 Increase 10/300 GL; 50 mM HEPES pH 7.5, 0.15 M NaCl; Tk-SmsB 40 uM alone, Tk-SmsC 72 uM alone, or mixture of 40 uM each; peak fraction analysed by SDS-PAGE and band densitometry; both purified
T2 sequence: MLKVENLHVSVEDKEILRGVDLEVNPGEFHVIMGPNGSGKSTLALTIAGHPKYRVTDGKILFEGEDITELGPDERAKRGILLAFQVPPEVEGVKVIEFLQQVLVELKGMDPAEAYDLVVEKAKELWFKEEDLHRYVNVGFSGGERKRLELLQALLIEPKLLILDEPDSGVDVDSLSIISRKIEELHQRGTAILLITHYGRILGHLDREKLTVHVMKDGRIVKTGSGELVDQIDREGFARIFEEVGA

[3] = biological target: T1, Tk-SmsB (TK0730 protein) with a 6x His tag at its N-terminus (Thermococcus kodakarensis); assay: SEC; gel filtration of Tk-CSD alone and of its mixtures with Tk-SmsB, Tk-SmsC or both, 30 uM of each protein; fractions analysed by SDS-PAGE; both purified
[4] = biological target: T3, Tk-SmsB2C2 complex (Thermococcus kodakarensis) (UniProt Q5JG67+Q5JG66); assay: as above
T3 sequence 1: T1 sequence
T3 sequence 2: T2 sequence

[5] = biological target: T2, Tk-SmsC (TK0731 protein), recombinant (Thermococcus kodakarensis); assay: as above
[6] = biological target: T1, Tk-SmsB (TK0730 protein) with a 6x His tag at its N-terminus (Thermococcus kodakarensis); assay: pull-down; affinity chromatography: mixture of Tk-CSD and His-tagged Tk-SmsB (30 uM each, 200 uL) on a His GraviTrap column; wash and eluate analysed by SDS-PAGE; both purified

B1: Tk-SmsC, endogenous in the cell-free extract of T. kodakarensis (protein, UniProt Q5JG66 1-246)
chain: T2 sequence
[1]
  binding: binds

B2: Tk-SmsC (TK0731 protein), recombinant (enzyme, Thermococcus kodakarensis, UniProt Q5JG66 1-246, looked up)
chain: T2 sequence
notes: SmsC (SufC homolog, ABC-type ATPase) of Thermococcus kodakarensis, locus TK0731; coding region amplified from genomic DNA of strain KU216; theoretical mass 27.5 kDa; Cloned NdeI-BamHI into pET-21a(+); Monomer by gel filtration; source: E. coli BL21-CodonPlus(DE3)-RIL (pET0731), purified (heat treatment, anion exchange, gel filtration)
[2]
  binding: no binding (tested: 72 µM)

B3: Tk-CSD (cysteine desulfurase of T. kodakarensis, TK1990 protein) (enzyme, Thermococcus kodakarensis, UniProt Q5JIJ0 1-399, looked up)
chain: MKIPDDIRKDIPLTSEVIYFDNTATSLTPKPVIEAMDEYYLKYRANVHRGVHRLSQIATHKYEESRKVVADFINAKFEEIVFTKNTSESLNLVALGLEHIFEKGDKIVTTPYEHHSDLLPWQRLAKKKGLRLEFIEGDLEGNLDLADAEKKIKGAKLVAVQHVSNALGVIHEVEELGKMAKEEGAIFVVDAAQSAGHMEVDVKKLYADFLGFSGHKGPMGPTGIGVLYINSEFFDVFEPPLIGGGTIEDVDLDSYKLAEPPERFEAGTPNIGGAIGLAAGIRYIERIGIEKIEKQEHKLVKRTTEGLDELEVPWYGPRNLKKHAGVVSFNVPPLHPHDVAAILDEHNIMVRSGHHCALPAMKKLGVEGTVRASFHVYNSVEEVETFLSVMENLIRGLRG
notes: cysteine desulfurase (SufS homolog) of Thermococcus kodakarensis, locus TK1990; coding region amplified from genomic DNA of strain KU216; theoretical monomer mass 44.4 kDa; Cloned NheI-EcoRI into pET-21a(+); Homodimer by gel filtration; source: E. coli BL21-CodonPlus(DE3)-RIL (pET1990), purified (heat treatment, anion exchange, gel filtration)
[3]
  binding: no binding (tested: 30 µM of each protein)
[4]
  binding: no binding (tested: 30 µM of each protein)
[5]
  binding: no binding (tested: 30 µM of each protein)
[6]
  binding: no binding (tested: 30 µM of each protein)
